Assay results as given in PubChem BioAssay AID1794845 (National Center for Advancing Translational Sciences (NCATS), 2023).
Fewer than 10 of roughly 6,900 compounds were called active. Calls follow the shape of the dose curve; as a rule, active = well fitted curve in the direction sought with a large enough effect; inconclusive = small, poorly fitted or top-dose-only effect, or another doubt; inactive = no such curve, though single readings can be large or run the other way. Some of the results follow.

The chains behind the UniProt entries cited, without tags or fusion partners. Where a name states a change or a piece, a line headed by the entry shows the natural chain unless it says otherwise.
UniProt C7C422: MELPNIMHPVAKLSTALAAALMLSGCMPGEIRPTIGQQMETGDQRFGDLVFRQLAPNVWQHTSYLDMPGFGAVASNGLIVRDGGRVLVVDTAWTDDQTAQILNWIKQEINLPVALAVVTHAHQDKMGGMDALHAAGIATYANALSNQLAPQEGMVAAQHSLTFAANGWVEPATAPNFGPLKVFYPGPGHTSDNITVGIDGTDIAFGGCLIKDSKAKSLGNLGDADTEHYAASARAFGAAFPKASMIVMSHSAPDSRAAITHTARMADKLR

molecular target: Metallo-beta-lactamase type 2 (Klebsiella pneumoniae) (UniProt C7C422); test: qHTS to identify inhibitors of the New Delhi Metallo-beta-lactamase (NDM): primary screen against the NCATS Gemini Collection; conditions: NDM-1 enzyme, meropenem hydrolysis, absorbance 300 nm; at 38.4 µM (top of the series) unless noted; also: % of control where 0% means no effect
Summary of the method: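 NDM-1 at 2 nM final in 50 mM HEPES pH 7.0, 1 uM ZnSO4, 0.01% Tween20, preincubated >30 min with compound. Meropenem 50 uM final added; absorbance at 300 nm after 30 min.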

Activity % (negative = inhibition), inactive:
Cc1nc(CN2CCCC(c3[nH]ncc3Cc3ccccc3)C2)co1 (centres undefined) -11.8%
O=C(COc1cccc(-c2nnc3n2CCCC3)c1)NCc1ccccc1 -4.92%
Cn1cc(CN2C[C@@H]3C[C@H](C2)c2ccc(NC(=O)COc4ccccc4)c(=O)n2C3)c2ccccc21 5.52%
Cc1noc(C)c1[S+](=O)([O-])N1CCn2ncc(C(=O)NCc3ccc(Cl)nc3)c2C1 7.92%
CC(C)(C)c1cc(CC2(NCc3ccc(Cl)cc3)COC2)no1 15.3% [at 57.5 µM]
Cc1ccc(CN2CCCCC23Cc2ccccc2CNC3=O)cc1C (centres undefined) 1.96%
CN(C)c1ccc(C(=O)NC[C@H]2O[C@@H](CO)[C@@H](O)[C@H]2N(C)CCc2ccccc2)cc1 8.31%
CC(=O)N1CCCC(c2[nH]ccc2C(=O)NCc2cc(C)nn2C)C1 (centres undefined) 1.91%
O=C(NCc1ccccn1)C1CCN(Cc2cc3n(n2)CCCNC3)CC1 4.62%
CCn1cnnc1CC1CCN(C(=O)c2[nH]nc3c2COc2ccccc2-3)CC1 8.89%
CC(=O)NC1(C)CCN(Cc2ccccc2-c2ccccc2Oc2ccccc2)C1 (centres undefined) 16.6% [at 57.5 µM]
CC(C)Nc1ncc(C(=O)NC2CCCN(CCc3ccccc3)C2)cn1 (centres undefined) 3.34%
CCn1cnnc1CC1CCN(C(=O)C2CCN(Cc3nc(-c4cccc(C)c4)oc3C)CC2)CC1 40.7%
Cc1cc(C(=O)N2CCC(Cc3nc(-c4ccccc4)n[nH]3)C2)n(C)n1 (centres undefined) -0.155%
CC(C)CNC(=O)N(C)C1CCc2nn(C)c(=O)n2CC1 (centres undefined) 9.39%
CN1c2cccnc2CN(C2CCC(CO)CC2)CC[C@H]1CO (some centres undefined) -1.27% [at 57.5 µM]
COc1ccc(-c2noc(-c3cccn3CC(=O)Nc3cccc(Cl)c3C)n2)cc1F -3.31%
COc1cccc(Nc2cc3c(cn2)CN(Cc2cccnc2)CCN3)c1 13.5% [at 57.5 µM]
CCOC(=O)c1cn(C2CN(S(=O)(=O)Cc3ccccc3)C2)nn1 5.99%
CCN1c2cc(C(=O)NCCc3ccccc3)ccc2C(=O)N2CCCCCC21 (centres undefined) 0.863%
O=C(c1cccc(OC2CN(C3CCSCC3)C2)c1)N1CCCC1 -6.71%
Cc1nn(CC(=O)NCCCN2CCCCC2)c(=O)c2nc(-c3ccccc3)sc12 4.21%
O=[S+]([O-])(c1cccs1)N1CCCN(c2nc3ncccc3o2)CC1 24.5%
COCCNC(=O)C(NC(=O)c1cccc(OC)c1)C1CCN(C(=O)COC)CC1 (centres undefined) -0.268%

Two neighbouring compounds out of the list so far, quoted:
Activity % (negative = inhibition), inactive:
CC(C)(C)c1cc(CC2(NCc3ccc(Cl)cc3)COC2)no1 15.3% [at 57.5 µM]
Cc1ccc(CN2CCCCC23Cc2ccccc2CNC3=O)cc1C (centres undefined) 1.96%
